Measured values: PubChem BioAssay AID2685 (National Center for Advancing Translational Sciences (NCATS), 2010)
Hit rate of the full screen: of about 320,000 compounds, about 2,100 (0.66%) were called active. The shares of active, inactive and inconclusive entries below differ from those in the screen. Calls follow the shape of the dose curve; as a rule, active = well fitted inhibition curve with a large enough effect in the signal ratio, with a control signal flat (not every such curve was filed as active); inconclusive = small, poorly fitted or top-dose-only effect, or effect the other way, or a change in a side signal; inactive = flat fitted curve, though single readings scatter; the % refers to the signal ratio. Potencies beside an inconclusive call are fits to weak or partial responses and may not hold up.
% is scaled to controls: 0 for no effect and ±100 for the full control effect; potency is read from the fitted curve at half-maximal effect.

Assay: qHTS Assay for Lipid Storage Modulators in Drosophila S3 Cells
Details: BODIPY lipid droplet fluorescence, 18-24 h, cells fed with added oleic acid; lipid storage change, negative = inhibition: at 46.1 µM (top of the series) unless noted
How it was run: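 Drosophila S3 cells loaded with oleic acid (400 uM, as added) and compounds at several concentrations; lipid droplets imaged by 488-nm laser-scanning cytometry, 500–530 nm intensity and object ratio to cell channel. Percent activity normalized to 20 uM Triacsin C.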
For `Cc1cccc(C2CC(c3ccccc3)Nc3ncnn32)c1` (configuration not stated), the lipid storage change, negative = inhibition was inconclusive: 49.1% [activator]. For `Cn1nc(C(=O)Nc2ccc(S(=O)(=O)N3CCCCC3)cc2)ccc1=O`, the lipid storage change, negative = inhibition was inconclusive: -24.9%. With `O=C(NCCc1ccccc1)C1(c2ccccc2)CCCC1` the Potency was inconclusive: 29.1 µM [activator, single point]. With `Cc1ccc(S(=O)(=O)N(C)c2ccc(OCC(=O)Nc3nc4ccccc4s3)cc2)cc1` the Potency was inconclusive: 7.31 µM [falling, partial curve]. In the case of `COC(C(=O)Nc1ccc(C(C)=O)cc1)c1ccccc1` (configuration not stated), the Potency was inconclusive: 29.1 µM [cytotoxic, single point]. In the case of `O=C(COC(=O)Cn1cnc2ccccc2c1=O)Nc1cc(Cl)ccc1[N+](=O)[O-]`, the lipid storage change, negative = inhibition was inconclusive: -2.94%. With `CCOC(=O)C1=C(C)NC(C)=C(C(=O)OCC)C1` the Potency was inconclusive: 5.8 µM [activator, partial curve, poor fit] and the lipid storage change, negative = inhibition was inconclusive: 9.67%. For `Cn1c(SCc2ccccc2[N+](=O)[O-])nnc1-c1cccnc1`, the lipid storage change, negative = inhibition was inconclusive: 6.69%. In the case of `Cc1nnc2c(NC3CCCCC3)nc3ccccc3n12`, the lipid storage change, negative = inhibition was inconclusive: 28.3%. In the case of `CCC(CC)c1nnc(NC(=O)CC(C)c2ccccc2)s1` (configuration not stated), the lipid storage change, negative = inhibition was inconclusive: 46.8%. For `COc1ccc(-c2csc(NC(=O)Nc3ccccc3)n2)cc1`, the lipid storage change, negative = inhibition was inconclusive: 3.71%. For `CCOCCCN1CC(C(=O)NCCc2ccc(C)cc2)CC1=O` (configuration not stated), the lipid storage change, negative = inhibition was inconclusive: -40.2%. In the case of `O=C(COC(=O)CN=C1NS(=O)(=O)c2ccccc21)Nc1ccccc1OC(F)F`, the lipid storage change, negative = inhibition was inconclusive: -46.6%. For `O=C(O)CC(c1ccc(Cl)cc1)N1C(=O)CCC1=O` (configuration not stated), the lipid storage change, negative = inhibition was inconclusive: -13%. In the case of `O=S(=O)(Nc1nc2ccccc2nc1N1CCc2ccccc2C1)c1ccc(Br)cc1`, the lipid storage change, negative = inhibition was inconclusive: 12.4%. For `O=C(/C=C/NNC(=O)c1ccccc1)c1ccccc1`, the lipid storage change, negative = inhibition was inconclusive: -10.4%. For `O=C(CSc1nc(O)cc(=O)n1C1CCCC1)Nc1cccc(Cl)c1Cl`, the lipid storage change, negative = inhibition was inconclusive: 5.17%. With `CC(C)C(=O)Nc1sc2c(c1C(N)=O)CCN(Cc1ccccc1)C2` the lipid storage change, negative = inhibition was inconclusive: -33.5%. With `O=C(COc1cccnc1[N+](=O)[O-])Nc1ncc(Cl)cc1Cl` the Potency was inconclusive: 29.1 µM [falling, partial curve, poor fit]. In the case of `O=C1CC(c2ccco2)Cc2c1cnn2-c1nc2ccccc2s1` (configuration not stated), the lipid storage change, negative = inhibition was inconclusive: 6.02%. In the case of `O=C(Cc1ccc(Cl)cc1)Nc1cccc(S(=O)(=O)Nc2ccccc2F)c1`, the Potency was inconclusive: 7.31 µM [activator, partial curve, poor fit]. For `CN(CC(=O)Nc1ccccc1Sc1ccccc1)Cc1nc2ccccc2c(=O)[nH]1`, the Potency was inconclusive: 0.13 µM [falling, single point]. With `CCOC(=O)N1CCC(NC(=O)CC2C(=O)NCCN2Cc2ccccc2)CC1` (configuration not stated) the Potency was inconclusive: 29.1 µM [activator, single point]. In the case of `CCC1CCCCN1C(=O)COc1ccc(F)cc1` (configuration not stated), the lipid storage change, negative = inhibition was inconclusive: 2.41%. With `Cc1nc2ccccc2nc1SCC(=O)c1ccccc1` the Potency was inconclusive: 29.1 µM [falling, single point]. In the case of `COc1ccc2cc(C(=O)NCc3ccccc3CN3CCCC3)ccc2c1`, the Potency was inconclusive: 8.2 µM [falling, partial curve]. For `O=C(c1ccc(Br)cc1)N1CCC(C(=O)N2CCN(c3ccccc3)CC2)CC1`, the Potency was inconclusive: 3.66 µM [falling, full curve]. With `CC(C)(C)C(=O)Nc1ccccc1C(=O)Nc1cccnc1` the Potency was inconclusive: 32.6 µM [falling, single point]. For `Cc1ccc(NC(=O)CN(C)C(=O)c2ccc(OCc3cn4ccccc4n3)cc2)cc1`, the Potency was inconclusive: 29.1 µM [activator, single point]. For `CC(=O)N/C(=C/c1ccc([N+](=O)[O-])cc1)C(=O)O`, the lipid storage change, negative = inhibition was inconclusive: -31.3%. With `OC(C#CCN1CCCCC1)c1ccccc1` (configuration not stated) the lipid storage change, negative = inhibition was inconclusive: -3.67%. With `CN(CCc1ccccc1)C1CCCN(S(=O)(=O)CC(F)(F)F)C1` (configuration not stated) the lipid storage change, negative = inhibition was inconclusive: 27.7%. In the case of `Cc1cccc(C(=O)OCC(=O)Nc2ccccc2C(=O)NC2CC2)c1`, the lipid storage change, negative = inhibition was inconclusive: 21.3%. In the case of `COc1nc(N)nc2nc[nH]c12`, the lipid storage change, negative = inhibition was inconclusive: 30.9%. For `COc1ccc(C2(C)NC(=O)N(CC(=O)c3cc(C)n(C4CC4)c3C)C2=O)cc1` (configuration not stated), the lipid storage change, negative = inhibition was inconclusive: -0.472%. With `CC(C)CC(=O)NC(=S)Nc1ccc(S(=O)(=O)Nc2nccs2)cc1` the lipid storage change, negative = inhibition was inconclusive: 50.3%. For `O=C(Nc1ccc(N2CCCCC2)cc1)c1cccnc1`, the lipid storage change, negative = inhibition was inconclusive: 30.9%. In the case of `Fc1ccc(Oc2nc(-c3ccccn3)nc3ccccc23)cc1`, the lipid storage change, negative = inhibition was inconclusive: -20.9%. In the case of `Cc1cc(NS(=O)(=O)c2ccc(NC(=S)NC(=O)c3cccc(S(=O)(=O)N(C)C)c3)cc2)no1`, the lipid storage change, negative = inhibition was inconclusive: -25.9%. In the case of `COc1cccc(-c2ccc(NC(=O)C3CCCN(Cc4cc(C)[nH]n4)C3)cc2)c1` (configuration not stated), the Potency was inconclusive: 11.6 µM [falling, single point]. With `COc1cccc2c(SCC(=O)N/N=C/c3ccc(O)c(O)c3)cc(C)nc12` the Potency was inconclusive: 0.206 µM [activator, single point]. In the case of `Cn1nnnc1SCc1cc(=O)n2ccsc2n1`, the lipid storage change, negative = inhibition was inconclusive: 5.5%. In the case of `COc1ccc2cc3c(N)nn(C(=O)c4ccc(F)cc4)c3nc2c1`, the Potency was inconclusive: 0.146 µM [activator, full curve, poor fit]. With `CC1=NC(=O)C(N=Nc2ccccc2)N1c1ccccc1` (configuration not stated) the Potency was inconclusive: 20.6 µM [cytotoxic, single point]. With `CCN(CC)c1ccc(NC(=O)CN(C)Cc2cccs2)cc1` the lipid storage change, negative = inhibition was inconclusive: 42.3%. For `CC(C)CC(=O)N1CC(=O)Nc2ccc(F)cc2C1c1ccccc1` (configuration not stated), the lipid storage change, negative = inhibition was inconclusive: -7.75%. With `COc1ccccc1NC(=O)NN1CCCCC1` the Potency was active: 0.58 µM. For `COc1cccc(CN2CC(C(=O)NC3CCC(O)CC3)CCC2=O)c1` (configuration not stated), the lipid storage change, negative = inhibition was inconclusive: 199%. For `Cc1nc2cc(-c3ccc(Br)cc3)[nH]n2c(=O)c1Cl`, the Potency was inconclusive: 11.6 µM [activator, partial curve]. For `CCOc1ccc(Nc2nc(Cc3nnc(SCC(N)=O)o3)cs2)cc1`, the lipid storage change, negative = inhibition was inconclusive: 22%. For `CS(=O)(=O)c1ccc(Cl)c(NC(=O)COC(=O)CNC(=O)c2cccs2)c1`, the lipid storage change, negative = inhibition was inconclusive: 7.03%. In the case of `CCN1CCCC1CNC(=O)CSCc1nc(-c2ccccc2C)oc1C` (configuration not stated), the lipid storage change, negative = inhibition was inconclusive: 10.7%. In the case of `COc1ccccc1NCN1C(=O)CCC1=O`, the Potency was inconclusive: 29.1 µM [activator, single point]. With `COc1ccc(C(=O)Nc2nnc(SCC(=O)NCc3ccco3)s2)c(OC)c1` the lipid storage change, negative = inhibition was inconclusive: -44.3%. For `CC(=O)c1c(C)[nH]c(C(=O)OCC(=O)N(Cc2ccccc2)C(C)(C)C)c1C`, the lipid storage change, negative = inhibition was inconclusive: -19%. For `CC1(C)N(OCc2ccccc2)C(=O)C(=O)N(OCc2ccccc2)C1(C)C`, the Potency was inconclusive: 29.1 µM [falling, single point]. For `COc1ccc(CN(C(=O)c2snc(C(N)=O)c2N)C(C(=O)NC2CCCC2)c2ccco2)cc1` (configuration not stated), the Potency was inconclusive: 14.6 µM [falling, single point]. For `N#Cc1ccccc1OCC(=O)Nc1cccc(S(=O)(=O)N2CCCC2)c1`, the Potency was inconclusive: 0.731 µM [falling, full curve, poor fit]. With `N#CC1C(C#N)N2CCCN2C1c1ccc(Br)cc1` (configuration not stated) the lipid storage change, negative = inhibition was inconclusive: 10.1%. For `CC(=O)c1c(N2CCN(C(=O)C3CCCO3)CC2)nc(=S)n(-c2ccccc2)c1C` (configuration not stated), the lipid storage change, negative = inhibition was inconclusive: -116%. In the case of `COc1ccc(S(=O)(=O)N(C)c2ccc(C(=O)Nc3cccnc3)cc2)cc1`, the lipid storage change, negative = inhibition was inconclusive: 87%. For `Oc1ccc(/C=N/Nc2ccnc3cc(Cl)ccc23)c(O)c1`, the Potency was active: 29.1 µM. In the case of `O=S(=O)(Nc1ccc(-n2cnnn2)cc1)c1cccc(F)c1`, the lipid storage change, negative = inhibition was “inconclusive”. For `C#CCOCCOCCOCCNc1nc(N2CCN(C(=O)[C@H]([C@@H](C)O)n3cc(CCCCN)nn3)CC2)nc(N2CCN(C(=O)[C@H]([C@@H](C)CC)n3cc(CCCN=C(N)N)nn3)CC2)n1`, the lipid storage change, negative = inhibition was inconclusive: -0.564%. For `O=C(O)c1ccccc1NN=C1CCCCC1`, the lipid storage change, negative = inhibition was inconclusive: -6.12%. For `O=C(Cc1ccc(F)cc1)OCC(=O)c1cc2ccccc2o1`, the lipid storage change, negative = inhibition was inconclusive: -54%. For `COc1ccc2cc(C(C)C(=O)N3CCC(C(N)=O)CC3)ccc2c1` (configuration not stated), the Potency was inconclusive: 29.1 µM [activator, partial curve]. For `Cc1csc(NC(=O)CSC2=NCCS2)n1`, the Potency was inconclusive: 2.06 µM [activator, partial curve, poor fit]. For `O=c1[nH]c(/C=C2\C=Nc3ccccc32)c(O)n1Cc1ccccc1F`, the lipid storage change, negative = inhibition was inconclusive: -55.3%. With `O=C(COC(=O)c1cccc(S(=O)(=O)N2CCN(c3ccccc3)CC2)c1)NCC1CCCO1` (configuration not stated) the lipid storage change, negative = inhibition was inconclusive: -14.9%. With `C/C(=N/Nc1nc(-c2ccc(Cl)cc2)cs1)c1cccs1` the Potency was inconclusive: 6.51 µM [falling, single point]. For `O=C(NCCN1CCN(c2ccccc2F)CC1)C1CC(=O)N(C2CCCC2)C1` (configuration not stated), the lipid storage change, negative = inhibition was inconclusive: 9.47%. With `Cc1ccc(CSc2[nH]c(=O)ncc2C)cc1` the lipid storage change, negative = inhibition was inconclusive: 25.4%. With `CCN(CC)S(=O)(=O)c1ccc2c(c1)c(=O)c(C(=O)N1CCN(c3ccccn3)CC1)cn2C` the lipid storage change, negative = inhibition was inconclusive: 13.8%. In the case of `CC1(C)NC(=O)N(CCCOc2ccc(Br)cc2Cl)C1=O`, the lipid storage change, negative = inhibition was inconclusive: 63.8%. With `COc1ccc(CN2CCCCC2C)c(C)c1C` (configuration not stated) the Potency was inconclusive: 1.16 µM [falling, full curve].
